Test [1] deals with T1, PksD, acyl hydrolase (AH) domain of the bacillaene trans-AT PKS (Bacillus subtilis str. 168), O34877.
T1 chain: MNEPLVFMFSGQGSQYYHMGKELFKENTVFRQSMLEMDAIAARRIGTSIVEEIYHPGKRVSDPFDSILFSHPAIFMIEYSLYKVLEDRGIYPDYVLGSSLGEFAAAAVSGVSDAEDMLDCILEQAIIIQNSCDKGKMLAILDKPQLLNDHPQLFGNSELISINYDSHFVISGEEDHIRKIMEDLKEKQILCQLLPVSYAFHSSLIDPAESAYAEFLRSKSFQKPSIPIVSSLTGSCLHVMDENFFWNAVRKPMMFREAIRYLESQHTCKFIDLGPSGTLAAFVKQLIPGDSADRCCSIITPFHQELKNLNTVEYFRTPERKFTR
Put plainly: SEC. Conditions: remark: other sources report otherwise.

For test [2], the target named is T2, Selenomethionine (SeMet)-derived PksD (Bacillus subtilis str. 168), O34877.
T2 chain: T1 chain
Put plainly: crystal structure. Particulars: remark: other sources report otherwise.

No constants are given. Whether binding was seen depends on the method and setting. Some binding calls cover weakened binding; strength is not graded here.

B1: PksD, acyl hydrolase (AH) domain of the bacillaene trans-AT PKS, O34877 1-324 (enzyme)
chain: T1 chain
Consider B1, for which the binding result in test [1] is “binds”.

B2: Selenomethionine (SeMet)-derived PksD, O34877 1-324 (enzyme)
chain: T1 chain
modifications: here or on the partner: selenomethionine (SeMet)-derived; selenomethionine (SeMet)-derived
As to B2, in test [2], the binding entry is listed as “binds”.

These data come from publication doi:10.1101/2023.08.11.552765.
